Hit rate of the full screen: of about 320,000 compounds, about 22,000 (6.9%) were called active. The shares of active, inactive and inconclusive entries below differ from those in the screen. Calls come from the whole dose curve; as a rule, active = well fitted inhibition curve with a large enough effect; inconclusive = small, poorly fitted or top-dose-only effect, or another doubt; inactive = no such curve, though single readings can be large or run the other way. Potencies beside an inconclusive call are fits to weak or partial responses and may not hold up.
Experiment: Primary qHTS for delayed death inhibitors of the malarial parasite plastid, 96 hour incubation
Details: P. falciparum luciferase reporter growth; series mostly up to 28.7 µM; activity change, negative = inhibition: at the top concentration
How it was run: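 Erythrocytes infected with luciferase-expressing P. falciparum were dispensed at 2% hematocrit and 0.05% parasitemia (final), then incubated with compounds 96 hours at 37 C in 5% CO2. Luminescence after detection reagent addition reported growth.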
% is set by controls: 0 for no effect and ±100 for the full control effect; potency is the fitted concentration of half-maximal effect.

With `Cc1cccc(NC(=S)NC23CN4CN(CN(C4)C2)C3)c1C` as the molecule, how does the Potency read?
The Potency was inconclusive: 0.104 µM [inhibitor, full curve, poor fit].

For `COc1ccccc1C(=O)NCC(=O)OCC(=O)Nc1nnc(-c2ccccc2)o1`, which Potency is on record?
Its Potency is inconclusive: 3.29 µM [inhibitor, single point].

Which Potency does the source give for `Cc1nc2cc(NS(=O)(=O)c3ccc(Br)cc3)ccc2n1C` here?
Its Potency is inconclusive: 1.47 µM [inhibitor, full curve].

Which Potency does the source give for `CC(=O)Nc1ccc(NC2CCCCC2NS(=O)(=O)c2ccccc2)cc1` (stereo not given) here?
The Potency was active: 8.28 µM.

For `O=C(N/N=C/c1ccc([N+](=O)[O-])cc1)c1c[nH]c2ccccc12`, which Potency is on record?
Its Potency is inconclusive: 18.5 µM [inhibitor, single point].

Which Potency does the source give for `Cc1nn(Cc2cccc(C(=O)NC(C)c3ccc(C(C)(C)C)cc3)c2)c(C)c1[N+](=O)[O-]` (stereo not given) here?
Its Potency is inconclusive: 10.4 µM [inhibitor, single point].

Which “activity change, negative = inhibition” value does the source give for `NC(=O)c1nsc(C(=O)N(CC(=O)NC2CCCC2)Cc2ccc3c(c2)OCO3)c1N` here?
Its value is inactive: -29.7%.

Which “activity change, negative = inhibition” value does the source give for `COCC1CCCN(C(=O)c2ccc3oc(C(C)C)nc3c2)C1` (stereo not given) here?
The value was inactive: -11.9%.

With `Cc1cc(N2CCN(c3ncccn3)CC2)nc2c(C)cccc12` as the molecule, how does the Potency read?
Its Potency is inconclusive: 9.28 µM [inhibitor, partial curve, poor fit].

With `CCOC(=O)CN1N=C(/C=C/c2ccc(OCC)cc2)CCC1=O` as the molecule, how does the Potency read?
Its Potency is inconclusive: 0.0059 µM [inhibitor, full curve, poor fit].

Which Potency does the source give for `Cc1cc(S(=O)(=O)Nc2ccc(C(=O)NCC(c3ccco3)N3CCCCC3)cc2)ccc1F` (stereo not given) here?
The Potency was inconclusive: 18.5 µM [inhibitor, single point].

Which Potency does the source give for `CCNC(=S)NCc1ccc2c(c1)OCO2` here?
The Potency was inconclusive: 1.17 µM [inhibitor, partial curve].

For `CCCCc1nc(NCC2CCCO2)c(C#N)c2c1COC(C)(C)C2` (stereo not given), which Potency is on record?
The Potency was inconclusive: 18.5 µM [inhibitor, partial curve, poor fit].

For `COc1ccccc1Cc1nnc(NC(=O)C2CCN(C(=O)c3ccco3)CC2)s1`, which “activity change, negative = inhibition” value is on record?
Its value is inactive: 6.51%.

Which “activity change, negative = inhibition” value does the source give for `CC(C)N1CCC(N2CCN(Cc3ccc(Oc4ncccn4)cc3)CC2CCO)CC1` (stereo not given) here?
Its value is inactive: 4.5%.

With `O=c1c(Cc2ccccc2)c(O)nc2n1CCCS2` as the molecule, how does the “activity change, negative = inhibition” value read?
The value was inactive: 32.7%.

For `CCOc1ccccc1CN1CCNC(=O)C1CC(=O)N(C)CCC1CCOCC1` (stereo not given), which Potency is on record?
The Potency was inconclusive: 11.7 µM [inhibitor, partial curve, poor fit].

Which “activity change, negative = inhibition” value does the source give for `O=C(Nc1ccc2c(c1)OCO2)c1cnc(Cl)c(Cl)c1` here?
The value was inactive: 158%.

Which Potency does the source give for `Cc1ccc(-n2[nH]c(C)c(C=Nc3ccc(S(=O)(=O)Nc4nccs4)cc3)c2=O)c(C)c1` here?
The Potency was inconclusive: 18.5 µM [inhibitor, single point].

Which Potency does the source give for `Cc1cc(-c2cc(-c3ccc(Cl)cc3)on2)nc(NC2CCCC2)n1` here?
The Potency was inconclusive: 18.5 µM [inhibitor, single point].

Which Potency does the source give for `C[C@@H](C(=O)NCc1ccco1)N1C(=O)N2CCc3c([nH]c4ccccc34)[C@@]2(C)C1=O` here?
The Potency was inconclusive: 18.5 µM [inhibitor, single point].

For `COc1ccc(NS(=O)(=O)c2ccc(N3CCOCC3)c(NC(=O)c3ccccc3Br)c2)cc1`, which Potency is on record?
The Potency was active: 9.28 µM.

For `Cc1c(-c2ccc(Cl)cc2Cl)nc2ccccc2c1C(=O)NCCN1CCOCC1`, which Potency is on record?
The Potency was inconclusive: 10.4 µM [inhibitor, single point].

Which Potency does the source give for `COc1ccc(-c2coc3c(CN4CCCCC4C)c(O)ccc3c2=O)cc1` (stereo not given) here?
The Potency was inconclusive: 18.5 µM [inhibitor, single point].

With `CCC1CCc2sc(C(=O)NCC(c3ccccc3OC)N3CCCC3)cc2C1` (stereo not given) as the molecule, how does the Potency read?
Its Potency is active: 9.28 µM.

Which Potency does the source give for `O=C(O)CCCC(=O)Nc1nncs1` here?
The Potency was inconclusive: 0.0029 µM [inhibitor, full curve, poor fit].

For `CC(OC(=O)c1cccc(-n2cnnn2)c1)C(=O)c1ccccc1` (stereo not given), which “activity change, negative = inhibition” value is on record?
Its value is inactive: 27.8%.

With `C=CCNC(=O)C1CCN(c2cc(C)nc(-c3ccccc3)n2)CC1` as the molecule, how does the “activity change, negative = inhibition” value read?
The value was inactive: -7.56%.

With `S=c1[nH]nc(Cc2ccccc2)n1-c1cccc2ccccc12` as the molecule, how does the “activity change, negative = inhibition” value read?
Its value is inactive: -4.33%.

For `Cc1cccc(C(=O)Nc2ccc3c(c2)CC2(C(=O)N(C)C(=O)N(C)C2=O)C2CCCN32)c1` (stereo not given), which Potency is on record?
Its Potency is active: 8.28 µM.

With `O=C(COCc1cc(-c2ccc3c(c2)OCO3)on1)N1CCN(c2cccc(C(F)(F)F)c2)CC1` as the molecule, how does the “activity change, negative = inhibition” value read?
Its value is inactive: 3.28%.

With `Cc1ccccc1CC1(CO)CCCN(Cc2c(C)nn(C)c2Cl)C1` (stereo not given) as the molecule, how does the Potency read?
The Potency was inconclusive: 16.5 µM [inhibitor, single point].

For `COc1ccc(OCCSc2nnc(-c3ccccc3)n2N)cc1`, which “activity change, negative = inhibition” value is on record?
Its value is inactive: 13.3%.

Which Potency does the source give for `Cc1cc(C)nc(N2CCN(CC(=O)NCc3ccccc3)CC2)n1` here?
The Potency was inconclusive: 0.165 µM [inhibitor, partial curve, poor fit].

Which “activity change, negative = inhibition” value does the source give for `COc1ccccc1NC(=O)C1(C)Cc2ccccc2C(=O)O1` (stereo not given) here?
The value was inactive: 167%.

For `CC(=O)N1c2ccc(S(=O)(=O)N3CCCCC3)cc2CC1C(=O)NCc1ccc(N(C)C)cc1` (stereo not given), which Potency is on record?
Its Potency is inconclusive: 18.5 µM [inhibitor, single point].

For `Cc1cccc(-n2nnnc2SCC(=O)NCC2(N3CCOCC3)CCCCC2)c1C`, which Potency is on record?
Its Potency is inconclusive: 7.38 µM [inhibitor, partial curve, poor fit].

For `CCOC(=O)C1(CCCc2ccccc2)CCN(Cc2nccn2CC)CC1`, which Potency is on record?
The Potency was inconclusive: 18.5 µM [inhibitor, single point].

For `O=C(NCCC1CCCCN1S(=O)(=O)c1ccc(F)cc1)C(=O)Nc1ccccc1` (stereo not given), which Potency is on record?
Its Potency is inconclusive: 10.4 µM [inhibitor, single point].

For `COc1ccc(Cl)cc1S(=O)(=O)N1CCCC1=O`, which Potency is on record?
The Potency was inconclusive: 14.7 µM [inhibitor, single point].

Which “activity change, negative = inhibition” value does the source give for `CCOc1ccc(OCC)c(NC(=O)C2CCCN(c3ncccn3)C2)c1` (stereo not given) here?
Its value is inactive: -16.6%.

For `CCOC(=O)c1cc2occc2n1CC(=O)NCCOC`, which Potency is on record?
The Potency was inconclusive: 11.7 µM [inhibitor, single point].

Which Potency does the source give for `O=c1[nH]c(CN2CC=C(c3ccccc3)CC2)nc2cc(C(F)(F)F)ccc12` here?
Its Potency is inconclusive: 16.5 µM [inhibitor, single point].

For `COc1ccc(NC(=O)CCC(=O)Nc2cc(OC)c(NC(=O)c3ccco3)cc2OC)c(OC)c1`, which “activity change, negative = inhibition” value is on record?
Its value is inactive: 2.14%.

Which “activity change, negative = inhibition” value does the source give for `CCOC(=O)Cc1nnc(NC(=O)Nc2ccccc2)s1` here?
The value was inactive: -10.1%.

With `CCn1c(=O)n(CC(=O)Nc2cc(OC)ccc2OC)c(=O)c2ccccc21` as the molecule, how does the Potency read?
Its Potency is inconclusive: 0.928 µM [inhibitor, full curve, poor fit].

With `Cc1nc(-c2cccs2)sc1C(=O)NN` as the molecule, how does the “activity change, negative = inhibition” value read?
The value was inactive: 18.2%.

Which Potency does the source give for `CC(NC(=O)C(=O)N1CCCCC1)C(c1cccs1)N1CCN(c2ccccc2)CC1` (stereo not given) here?
Its Potency is inconclusive: 10.4 µM [inhibitor, single point].

Which Potency does the source give for `Cc1ccc(P(=O)(O)c2ccc(C)cc2)cc1` here?
The Potency was inconclusive: 20.8 µM [inhibitor, partial curve, poor fit].

For `COC(=O)c1sccc1NC(=O)c1ccccc1[N+](=O)[O-]`, which Potency is on record?
The Potency was active: 1.85 µM.

Which Potency does the source give for `CC1CCCC/C1=N\NS(=O)(=O)c1ccc(Br)cc1` (stereo not given) here?
Its Potency is inconclusive: 13.1 µM [inhibitor, single point].

Which Potency does the source give for `Cc1cccc(NC(=O)CN2CCN(CC(=O)Nc3ccc(-c4ccccc4)cc3)CC2)c1C` here?
The Potency was inconclusive: 10.4 µM [inhibitor, single point].

For `O=[N+]([O-])c1ccc(S(=O)(=O)c2ccccc2)nc1`, which Potency is on record?
The Potency was active: 1.65 µM.

With `CCOc1ccc2[nH]c(=O)c(CN(CCN3CCCC3)C(=S)Nc3ccccc3OCC)cc2c1` as the molecule, how does the Potency read?
The Potency was inconclusive: 0.657 µM [inhibitor, full curve, poor fit].

Which Potency does the source give for `CCCC/C(O)=C1\C(=O)CC(C)(C)CC1=Nc1ccc(N)cc1` here?
The Potency was inconclusive: 16.5 µM [inhibitor, partial curve, poor fit].

Which Potency does the source give for `COc1ccc(NC(=O)c2ccc(-n3cnnn3)cc2)c([N+](=O)[O-])c1` here?
The Potency was inconclusive: 10.4 µM [inhibitor, single point].

With `Cn1c(SCc2ccccn2)nc2c1c(=O)[nH]c(=O)n2C` as the molecule, how does the “activity change, negative = inhibition” value read?
The value was inactive: -17.3%.

Which Potency does the source give for `CN(C(=O)COC(=O)c1c2c(nc3ccccc13)CCCC2)c1c(N)n(Cc2ccccc2)c(=O)[nH]c1=O` here?
Its Potency is active: 8.28 µM.

For `COc1ccc(NC(=O)c2ccc(-n3cncn3)c([N+](=O)[O-])c2)cc1OC`, which Potency is on record?
The Potency was inconclusive: 5.22 µM [inhibitor, partial curve, poor fit].

With `CC(Sc1ncnc2ccccc12)C(=O)Nc1ccc2c(c1)OCCO2` (stereo not given) as the molecule, how does the “activity change, negative = inhibition” value read?
The value was inactive: 94.4%.

Which Potency does the source give for `CC(C)c1ccc(S(=O)(=O)N2CCN(C(C)C(=O)NC3CCCC3)CC2)cc1` (stereo not given) here?
Its Potency is inconclusive: 1.31 µM [inhibitor, partial curve, poor fit].

With `O=C(COC(=O)c1cccc(C(=O)OCC(=O)NC2CC2)n1)NC1CC1` as the molecule, how does the “activity change, negative = inhibition” value read?
The value was inactive: 5.41%.

For `Oc1[nH]c2ccccc2c1N=Nc1cccc(Cl)c1`, which Potency is on record?
Its Potency is inconclusive: 8.28 µM [inhibitor, partial curve, poor fit].

Which “activity change, negative = inhibition” value does the source give for `COc1cc([N+](=O)[O-])ccc1N=Nc1c(N)[nH]n(-c2ccccc2)c1=O` here?
Its value is inactive: 0%.

Which Potency does the source give for `CC(=O)Nc1nc(C)c(-c2csc(Nc3cccc([N+](=O)[O-])c3)n2)s1` here?
The Potency was active: 0.828 µM.

With `N#Cc1ccsc1NC(=O)CCN1CCN(C(c2ccccc2)c2ccccc2)CC1` as the molecule, how does the Potency read?
The Potency was inconclusive: 18.5 µM [inhibitor, single point].

Which Potency does the source give for `COc1ccc(C(=O)NCCc2ccccn2)cc1S(=O)(=O)Nc1ccc(Br)cc1` here?
Its Potency is inconclusive: 10.4 µM [inhibitor, single point].

Which “activity change, negative = inhibition” value does the source give for `O=C(NCCCO)c1ccc(CSc2nc3ccccc3c(=O)[nH]2)cc1` here?
Its value is inactive: -2.43%.

With `CC(NC(=O)NCc1cccnc1)(C(F)(F)F)C(F)(F)F` as the molecule, how does the “activity change, negative = inhibition” value read?
The value was inactive: 6.19%.

From PubChem BioAssay AID504834 (National Center for Advancing Translational Sciences (NCATS), 2011)
